Experimental data published in the supplement of paper PMC10849652.
The other results are listed elsewhere or left out.

Chains of the proteins cited; added tags and fusions are not shown. Lines headed by an entry give the natural chain unless they say otherwise; changes in a name come on top.
UniProt P49593: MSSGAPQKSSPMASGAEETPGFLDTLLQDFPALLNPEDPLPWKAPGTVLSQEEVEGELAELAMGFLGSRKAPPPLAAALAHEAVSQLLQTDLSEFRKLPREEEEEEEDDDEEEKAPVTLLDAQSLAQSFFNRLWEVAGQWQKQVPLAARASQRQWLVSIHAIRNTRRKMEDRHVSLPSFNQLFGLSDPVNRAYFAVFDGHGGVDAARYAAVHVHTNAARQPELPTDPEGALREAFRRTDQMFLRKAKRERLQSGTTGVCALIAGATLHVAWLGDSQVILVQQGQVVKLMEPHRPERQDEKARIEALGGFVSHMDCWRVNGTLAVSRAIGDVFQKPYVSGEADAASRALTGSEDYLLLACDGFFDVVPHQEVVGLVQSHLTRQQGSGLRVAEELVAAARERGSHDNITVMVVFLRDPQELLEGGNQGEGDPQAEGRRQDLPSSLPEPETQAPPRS
UniProt Q16537, whole entry, looked up: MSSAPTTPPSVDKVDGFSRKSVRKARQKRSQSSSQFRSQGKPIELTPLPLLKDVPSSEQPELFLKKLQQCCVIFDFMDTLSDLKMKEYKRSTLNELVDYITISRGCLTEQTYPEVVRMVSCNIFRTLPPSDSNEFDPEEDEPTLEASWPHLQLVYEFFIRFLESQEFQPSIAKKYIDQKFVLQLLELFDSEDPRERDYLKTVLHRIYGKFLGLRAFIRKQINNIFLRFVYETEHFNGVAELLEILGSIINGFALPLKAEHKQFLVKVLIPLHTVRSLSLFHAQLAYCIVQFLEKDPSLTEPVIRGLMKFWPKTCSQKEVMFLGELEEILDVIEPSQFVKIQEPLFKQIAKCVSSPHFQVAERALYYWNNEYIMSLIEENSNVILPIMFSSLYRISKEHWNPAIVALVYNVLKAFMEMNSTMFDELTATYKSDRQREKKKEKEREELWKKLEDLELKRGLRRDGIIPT
UniProt Q5VTL8: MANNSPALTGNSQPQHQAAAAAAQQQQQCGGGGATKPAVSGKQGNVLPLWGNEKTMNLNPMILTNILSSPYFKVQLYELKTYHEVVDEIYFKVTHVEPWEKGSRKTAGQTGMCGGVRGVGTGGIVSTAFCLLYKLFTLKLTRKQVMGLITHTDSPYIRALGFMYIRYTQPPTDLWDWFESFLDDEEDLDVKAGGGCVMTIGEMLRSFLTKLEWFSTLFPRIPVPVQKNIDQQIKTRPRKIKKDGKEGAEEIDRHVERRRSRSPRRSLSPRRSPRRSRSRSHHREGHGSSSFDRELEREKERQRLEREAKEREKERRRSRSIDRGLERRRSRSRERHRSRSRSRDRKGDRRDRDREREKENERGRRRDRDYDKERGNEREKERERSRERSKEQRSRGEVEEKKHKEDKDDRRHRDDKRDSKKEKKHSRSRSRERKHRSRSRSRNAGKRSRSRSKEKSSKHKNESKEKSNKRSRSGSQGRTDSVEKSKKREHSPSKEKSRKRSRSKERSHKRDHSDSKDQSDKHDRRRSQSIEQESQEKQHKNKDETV
UniProt P48147: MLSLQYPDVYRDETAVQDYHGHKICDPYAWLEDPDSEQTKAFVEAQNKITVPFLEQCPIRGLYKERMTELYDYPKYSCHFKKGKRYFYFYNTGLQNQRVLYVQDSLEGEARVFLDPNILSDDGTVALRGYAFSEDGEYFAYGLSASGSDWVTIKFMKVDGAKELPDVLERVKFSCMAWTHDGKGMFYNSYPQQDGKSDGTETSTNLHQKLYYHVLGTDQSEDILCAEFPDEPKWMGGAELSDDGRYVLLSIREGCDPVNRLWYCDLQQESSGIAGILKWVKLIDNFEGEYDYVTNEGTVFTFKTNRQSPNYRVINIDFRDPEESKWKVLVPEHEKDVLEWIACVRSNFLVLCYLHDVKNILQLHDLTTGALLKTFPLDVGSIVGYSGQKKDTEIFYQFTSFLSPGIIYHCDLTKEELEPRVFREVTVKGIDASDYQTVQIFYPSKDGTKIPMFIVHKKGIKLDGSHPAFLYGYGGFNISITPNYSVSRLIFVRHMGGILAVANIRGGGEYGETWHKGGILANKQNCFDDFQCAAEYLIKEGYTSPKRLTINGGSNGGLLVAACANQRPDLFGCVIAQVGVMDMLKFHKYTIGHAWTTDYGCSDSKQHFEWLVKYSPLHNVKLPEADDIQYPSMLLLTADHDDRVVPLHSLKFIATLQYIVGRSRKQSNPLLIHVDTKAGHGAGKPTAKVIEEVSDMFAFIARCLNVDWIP
UniProt Q9ULJ8: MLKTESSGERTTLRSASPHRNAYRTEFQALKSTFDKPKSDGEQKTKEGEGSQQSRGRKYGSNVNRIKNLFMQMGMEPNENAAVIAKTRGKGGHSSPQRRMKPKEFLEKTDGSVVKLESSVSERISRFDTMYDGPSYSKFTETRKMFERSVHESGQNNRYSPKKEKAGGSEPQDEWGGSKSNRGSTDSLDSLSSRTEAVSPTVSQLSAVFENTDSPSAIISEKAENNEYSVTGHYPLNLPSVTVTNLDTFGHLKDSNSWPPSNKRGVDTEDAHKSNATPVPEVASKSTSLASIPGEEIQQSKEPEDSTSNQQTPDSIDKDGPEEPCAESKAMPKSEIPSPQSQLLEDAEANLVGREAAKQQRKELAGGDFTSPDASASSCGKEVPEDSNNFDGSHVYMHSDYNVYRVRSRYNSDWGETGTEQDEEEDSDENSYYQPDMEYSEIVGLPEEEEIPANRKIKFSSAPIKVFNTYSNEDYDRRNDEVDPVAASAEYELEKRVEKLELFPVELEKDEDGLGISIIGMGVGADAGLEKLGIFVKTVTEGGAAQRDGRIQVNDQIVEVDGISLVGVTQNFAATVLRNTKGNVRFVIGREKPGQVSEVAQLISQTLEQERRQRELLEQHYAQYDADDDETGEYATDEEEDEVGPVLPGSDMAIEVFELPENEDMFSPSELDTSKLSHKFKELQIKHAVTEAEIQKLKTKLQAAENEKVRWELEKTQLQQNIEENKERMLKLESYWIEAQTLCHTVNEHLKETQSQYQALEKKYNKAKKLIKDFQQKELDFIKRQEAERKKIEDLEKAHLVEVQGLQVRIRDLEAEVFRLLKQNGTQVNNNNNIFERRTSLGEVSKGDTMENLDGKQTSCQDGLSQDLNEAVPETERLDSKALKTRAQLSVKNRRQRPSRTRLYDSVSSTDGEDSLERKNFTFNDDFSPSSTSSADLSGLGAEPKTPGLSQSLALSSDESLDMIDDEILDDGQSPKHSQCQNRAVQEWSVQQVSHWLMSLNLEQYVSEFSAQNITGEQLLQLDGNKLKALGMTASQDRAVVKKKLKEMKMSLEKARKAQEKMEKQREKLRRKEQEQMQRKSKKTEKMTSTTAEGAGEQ
UniProt Q96LA8, whole entry, looked up: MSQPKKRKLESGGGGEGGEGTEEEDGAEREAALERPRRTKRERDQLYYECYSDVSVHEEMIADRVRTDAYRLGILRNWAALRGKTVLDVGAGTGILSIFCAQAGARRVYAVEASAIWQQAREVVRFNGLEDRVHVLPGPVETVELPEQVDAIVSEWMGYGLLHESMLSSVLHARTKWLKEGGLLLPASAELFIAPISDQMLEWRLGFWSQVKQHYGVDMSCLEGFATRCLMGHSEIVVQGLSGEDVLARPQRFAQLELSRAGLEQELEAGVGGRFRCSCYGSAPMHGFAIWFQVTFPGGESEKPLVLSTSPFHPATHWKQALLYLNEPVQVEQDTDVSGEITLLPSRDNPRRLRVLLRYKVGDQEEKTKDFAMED
UniProt P41743, whole entry, looked up: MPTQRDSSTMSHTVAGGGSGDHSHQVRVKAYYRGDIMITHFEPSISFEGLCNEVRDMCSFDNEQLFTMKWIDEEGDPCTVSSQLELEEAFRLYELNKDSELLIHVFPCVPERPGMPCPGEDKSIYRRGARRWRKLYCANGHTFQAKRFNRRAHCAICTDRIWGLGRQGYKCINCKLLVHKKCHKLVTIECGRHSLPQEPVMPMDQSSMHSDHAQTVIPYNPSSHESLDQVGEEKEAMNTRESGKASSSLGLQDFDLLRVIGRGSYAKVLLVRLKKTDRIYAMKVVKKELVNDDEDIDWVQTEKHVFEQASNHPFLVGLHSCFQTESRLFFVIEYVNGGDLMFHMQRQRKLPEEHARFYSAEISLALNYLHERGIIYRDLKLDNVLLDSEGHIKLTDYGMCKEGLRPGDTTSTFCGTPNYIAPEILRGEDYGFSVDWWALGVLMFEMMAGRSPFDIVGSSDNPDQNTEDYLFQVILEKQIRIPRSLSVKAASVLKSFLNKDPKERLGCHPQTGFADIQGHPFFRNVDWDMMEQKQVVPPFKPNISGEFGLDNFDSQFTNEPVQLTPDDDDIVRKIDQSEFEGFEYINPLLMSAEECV
UniProt P11908: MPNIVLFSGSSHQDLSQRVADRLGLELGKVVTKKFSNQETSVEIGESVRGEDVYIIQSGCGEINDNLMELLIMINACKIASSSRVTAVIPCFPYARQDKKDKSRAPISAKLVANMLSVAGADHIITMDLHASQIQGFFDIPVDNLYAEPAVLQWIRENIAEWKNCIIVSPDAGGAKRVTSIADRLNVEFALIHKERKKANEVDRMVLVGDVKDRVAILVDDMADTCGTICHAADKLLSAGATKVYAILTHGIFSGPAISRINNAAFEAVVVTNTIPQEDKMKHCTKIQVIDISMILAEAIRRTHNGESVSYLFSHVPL
UniProt Q9UMR5: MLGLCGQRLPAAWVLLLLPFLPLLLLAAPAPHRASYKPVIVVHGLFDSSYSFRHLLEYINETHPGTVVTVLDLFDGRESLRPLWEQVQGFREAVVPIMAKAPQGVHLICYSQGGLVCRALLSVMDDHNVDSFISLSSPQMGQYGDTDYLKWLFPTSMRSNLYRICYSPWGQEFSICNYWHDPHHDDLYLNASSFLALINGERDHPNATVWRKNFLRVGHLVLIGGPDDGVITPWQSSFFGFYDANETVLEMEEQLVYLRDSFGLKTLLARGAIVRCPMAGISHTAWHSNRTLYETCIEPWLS
UniProt O94906: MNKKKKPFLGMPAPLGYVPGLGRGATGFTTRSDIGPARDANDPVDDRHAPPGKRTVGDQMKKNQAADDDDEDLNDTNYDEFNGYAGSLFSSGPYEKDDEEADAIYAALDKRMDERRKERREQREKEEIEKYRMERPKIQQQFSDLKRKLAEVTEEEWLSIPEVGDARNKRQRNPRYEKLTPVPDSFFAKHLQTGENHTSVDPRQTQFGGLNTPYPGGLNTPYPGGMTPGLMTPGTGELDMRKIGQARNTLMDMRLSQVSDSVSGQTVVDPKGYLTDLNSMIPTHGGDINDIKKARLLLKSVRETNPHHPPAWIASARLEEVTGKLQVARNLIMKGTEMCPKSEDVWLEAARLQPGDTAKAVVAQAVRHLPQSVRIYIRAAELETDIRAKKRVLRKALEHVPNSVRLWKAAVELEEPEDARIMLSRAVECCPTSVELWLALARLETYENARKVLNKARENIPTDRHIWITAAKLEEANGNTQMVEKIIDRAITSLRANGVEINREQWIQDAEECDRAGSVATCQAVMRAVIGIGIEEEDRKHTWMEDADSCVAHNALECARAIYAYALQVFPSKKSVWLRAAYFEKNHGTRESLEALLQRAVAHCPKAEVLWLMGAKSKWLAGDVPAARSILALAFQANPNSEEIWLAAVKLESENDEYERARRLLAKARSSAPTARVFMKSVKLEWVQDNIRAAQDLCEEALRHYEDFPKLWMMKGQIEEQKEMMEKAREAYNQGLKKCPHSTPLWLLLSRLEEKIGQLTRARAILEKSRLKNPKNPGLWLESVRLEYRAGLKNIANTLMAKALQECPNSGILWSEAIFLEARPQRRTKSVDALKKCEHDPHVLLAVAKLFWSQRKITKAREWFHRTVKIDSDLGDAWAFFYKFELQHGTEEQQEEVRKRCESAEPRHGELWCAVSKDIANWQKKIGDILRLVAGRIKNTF
UniProt O43395: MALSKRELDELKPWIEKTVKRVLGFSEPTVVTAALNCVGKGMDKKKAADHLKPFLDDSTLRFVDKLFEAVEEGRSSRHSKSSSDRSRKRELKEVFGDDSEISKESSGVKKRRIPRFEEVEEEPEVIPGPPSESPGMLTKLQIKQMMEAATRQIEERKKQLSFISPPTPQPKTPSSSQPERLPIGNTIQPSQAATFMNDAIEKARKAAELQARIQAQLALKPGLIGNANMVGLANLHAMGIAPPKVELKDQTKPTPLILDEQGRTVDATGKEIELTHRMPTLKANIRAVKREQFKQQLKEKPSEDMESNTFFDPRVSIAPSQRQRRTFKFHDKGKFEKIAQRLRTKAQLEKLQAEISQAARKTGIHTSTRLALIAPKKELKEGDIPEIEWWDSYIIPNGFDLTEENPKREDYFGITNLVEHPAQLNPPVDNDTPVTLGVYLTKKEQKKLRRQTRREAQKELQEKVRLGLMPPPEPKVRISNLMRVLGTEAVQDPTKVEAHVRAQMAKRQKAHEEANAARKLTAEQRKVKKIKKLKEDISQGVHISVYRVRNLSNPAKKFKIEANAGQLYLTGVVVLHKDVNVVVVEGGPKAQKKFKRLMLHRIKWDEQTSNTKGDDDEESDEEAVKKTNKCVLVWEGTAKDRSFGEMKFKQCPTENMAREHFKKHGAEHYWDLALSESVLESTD

Experiments:
Experiment in all cases: log2 fold change, soluble protein after heating vs DMSO (PISA); higher = thermal stabilisation; K562 cells, 10 uM, 30 min; active = over 0.2 and 3.5 SD of the protein, either way, in both replicates (recomputed)
[1] = compound: COC1=CC=C(C=C1)CN2C=CC3=C2C=C(C=C3)C(=O)NO
Outline: (§1)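 K562 cells at 2×10^6 cells/mL were given 10 μM compound for 30 min. Aliquots then went through 3 min of heating across 48°C-58°C, were pooled, and were extracted in PBS with 0.5% NP-40 at 4°C, and the supernatant after 21,000xg for 90 min was quantified by TMTpro 16plex LC-MS/MS with channel sums equalised. Thermal stability relative to control samples, from duplicates, is given as log2 fold change.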

[2] = compound: CON(C)C(=O)N1N=C(c2cc(F)ccc2F)S[C@@]1(CCCN)c1ccccc1 [filanesib]
Outline: as §1

[3] = compound: CO[C@H]1C[C@@H]2CC[C@@H](C)[C@@](O)(O2)C(=O)C(=O)N2CCCC[C@H]2C(=O)O[C@H]([C@H](C)C[C@@H]2CC[C@H](n3cnnn3)[C@H](OC)C2)CC(=O)[C@H](C)/C=C(\C)[C@@H](O)[C@@H](OC)C(=O)[C@H](C)C[C@H](C)/C=C/C=C/C=C/1C [zotarolimus]
Outline: as §1

[4] = compound: COc1cc(C(=O)O)ccc1NC(=O)[C@@H]1N[C@@H](CC(C)(C)C)[C@](C#N)(c2ccc(Cl)cc2F)[C@H]1c1cccc(Cl)c1F [idasanutlin]
Outline: as §1

[5] = compound: COc1cc(Nc2ncc3c(n2)-c2ccc(Cl)cc2C(c2c(F)cccc2OC)=NC3)ccc1C(=O)O [alisertib]
Outline: as §1

[6] = compound: COc1cc2nc(-c3cc(F)ccc3O)nc(N[C@@H]3CNC[C@H]3C(C)(C)O)c2cc1OC
Outline: as §1

[7] = compound: COc1cc2ncnc(Nc3ccc(F)c(Cl)c3)c2cc1OCCCN1CCOCC1 [gefitinib]
Outline: as §1

[8] = compound: COc1cccc2cc(-c3nc([C@H]4CC[C@H](C(=O)O)CC4)n4ncnc(N)c34)[nH]c12
Outline: as §1

[9] = compound: CS(=O)(=O)CCNCc1ccc(-c2ccc3ncnc(Nc4ccc(OCc5cccc(F)c5)c(Cl)c4)c3c2)o1 [lapatinib]
Outline: as §1

[10] = compound: CS(=O)(=O)N1CCN(Cc2cc3nc(-c4cccc5[nH]ncc45)nc(N4CCOCC4)c3s2)CC1 [pictilisib]
Outline: as §1

| Target | log2 fold change [1] | log2 fold change [2] | log2 fold change [3] | log2 fold change [4] | log2 fold change [5] | log2 fold change [6] | log2 fold change [7] | log2 fold change [8] | log2 fold change [9] | log2 fold change [10] |
| --- | --- | --- | --- | --- | --- | --- | --- | --- | --- | --- |
| PPP6R1 (UniProt Q9UPN7) | inactive: -0.002 | inactive: -0.072 | inactive: -0.005 | inactive: -0.032 | inactive: -0.098 | inactive: -0.055 | inactive: 0.012 | inactive: 0.014 | inactive: 0.016 | inactive: 0 |
| PRMT5 (UniProt O14744) | inactive: 0.034 | inactive: -0.038 | inactive: 0.017 | inactive: -0.011 | inactive: -0.04 | inactive: 0.045 | inactive: 0.029 | inactive: 0.019 | inactive: 0.003 | inactive: -0.005 |
| PPM1F (UniProt P49593) | inactive: 0.006 | inactive: -0.04 | inactive: 0.025 | inactive: -0.052 | inactive: -0.017 | inactive: 0.055 | inactive: -0.04 | inactive: 0.013 | inactive: -0.022 | inactive: 0.012 |
| PRPF31 (UniProt Q8WWY3) | inactive: 0.07 | inactive: 0.006 | inactive: -0.028 | inactive: -0.053 | inactive: 0.081 | inactive: -0.393 | inactive: 0.003 | inactive: 0.024 | inactive: 0.061 | inactive: 0.139 |
| PPP2R5E (UniProt Q16537) | inactive: -0.044 | inactive: -0.056 | inactive: -0.009 | inactive: -0.191 | inactive: -0.024 | inactive: 0.205 | inactive: 0.002 | inactive: 0.033 | inactive: -0.024 | inactive: -0.118 |
| PRDX3 (UniProt P30048) | inactive: 0.067 | inactive: 0.021 | inactive: -0.026 | inactive: 0.028 | inactive: -0.094 | inactive: 0.008 | inactive: 0.003 | inactive: 0.023 | inactive: 0.022 | inactive: 0.07 |
| PPP1R14A (UniProt Q96A00) | inactive: 0.016 | inactive: 0.031 | inactive: -0.028 | inactive: -0.013 | inactive: -0.041 | inactive: 0.039 | inactive: 0.012 | inactive: -0.079 | inactive: -0.057 | inactive: 0.017 |
| PRPF38B (UniProt Q5VTL8) | inactive: -0.004 | inactive: 0.163 | inactive: 0.016 | inactive: 0.039 | inactive: -0.09 | inactive: 0.083 | inactive: 0.002 | inactive: 0.043 | inactive: 0.027 | inactive: 0.065 |
| PREP (UniProt P48147) | inactive: 0.026 | inactive: -0.045 | inactive: 0.125 | inactive: -0.002 | inactive: 0.036 | inactive: -0.003 | inactive: 0.024 | inactive: -0.066 | inactive: 0.008 | inactive: -0.085 |
| PROCR (UniProt Q9UNN8) | inactive: -0.122 | inactive: -0.162 | inactive: -0.084 | inactive: 0.117 | – | inactive: 0.102 | inactive: 0.011 | – | inactive: 0.024 | inactive: 0.131 |
| PRKAR2B (UniProt P31323) | inactive: -0.032 | inactive: 0.06 | inactive: 0.153 | inactive: 0.05 | inactive: -0.007 | active: -0.63 | inactive: -0.026 | inactive: -0.024 | inactive: 0.048 | inactive: -0.056 |
| PPP1R9A isoform 3 (UniProt Q9ULJ8) | inactive: -0.016 | inactive: 0.13 | – | – | inactive: -0.444 | – | inactive: 0.068 | inactive: -0.163 | – | – |
| PRMT6 (UniProt Q96LA8) | inactive: -0.172 | – | inactive: -0.025 | inactive: -0.058 | inactive: -0.08 | inactive: 0.093 | inactive: 0.051 | inactive: 0.042 | inactive: -0.041 | inactive: -0.019 |
| PRKCI (UniProt P41743) | inactive: -0.024 | inactive: 0.036 | inactive: 0.051 | inactive: -0.007 | inactive: -0.037 | inactive: 0.042 | inactive: 0.022 | inactive: -0.023 | inactive: 0.022 | inactive: 0.004 |
| PRKD3 (UniProt O94806) | inactive: -0.062 | inactive: -0.002 | inactive: 0.084 | inactive: 0.171 | inactive: -0.039 | – | – | inactive: 0.149 | – | inactive: 0.255 |
| PRSS2 (UniProt P07478) | inactive: 0.017 | inactive: 0.028 | inactive: 0.072 | inactive: -0.056 | – | inactive: 0.027 | inactive: 0.039 | – | inactive: 0.166 | – |

Reprinted at random: two entries already listed, in no set order.

| Target | log2 fold change [1] | log2 fold change [2] | log2 fold change [3] | log2 fold change [4] | log2 fold change [5] | log2 fold change [6] | log2 fold change [7] | log2 fold change [8] | log2 fold change [9] | log2 fold change [10] |
| --- | --- | --- | --- | --- | --- | --- | --- | --- | --- | --- |
| PRSS2 (UniProt P07478) | inactive: 0.017 | inactive: 0.028 | inactive: 0.072 | inactive: -0.056 | – | inactive: 0.027 | inactive: 0.039 | – | inactive: 0.166 | – |
| PPP1R9A isoform 3 (UniProt Q9ULJ8) | inactive: -0.016 | inactive: 0.13 | – | – | inactive: -0.444 | – | inactive: 0.068 | inactive: -0.163 | – | – |

Later entries:

| Target | log2 fold change [1] | log2 fold change [2] | log2 fold change [3] | log2 fold change [4] | log2 fold change [5] | log2 fold change [6] | log2 fold change [7] | log2 fold change [8] | log2 fold change [9] | log2 fold change [10] |
| --- | --- | --- | --- | --- | --- | --- | --- | --- | --- | --- |
| PPP1R11 (UniProt O60927) | inactive: 0.015 | inactive: 0.03 | inactive: -0.021 | inactive: 0.056 | inactive: -0.026 | inactive: 0.023 | inactive: -0.012 | inactive: 0.005 | inactive: 0.007 | inactive: 0.079 |
| PPP4R1 (UniProt Q8TF05) | inactive: 0.058 | inactive: -0.049 | inactive: 0.047 | inactive: -0.037 | inactive: -0.058 | inactive: 0.04 | inactive: 0.016 | inactive: -0.017 | inactive: -0.034 | inactive: -0.009 |
| PRDX5 (UniProt P30044) | inactive: 0 | inactive: -0.006 | inactive: -0.051 | inactive: 0.023 | inactive: -0.008 | inactive: 0.007 | inactive: 0.018 | inactive: 0.044 | inactive: -0.046 | inactive: -0.01 |
| PRPF40A (UniProt O75400) | inactive: 0.082 | inactive: 0.135 | inactive: 0.029 | inactive: 0.058 | inactive: 0.024 | inactive: -0.091 | inactive: 0.042 | inactive: -0.045 | inactive: 0.018 | inactive: -0.027 |
| PRKD2 isoform 3 (UniProt Q9BZL6) | inactive: -0.05 | inactive: -0.037 | inactive: -0.125 | inactive: 0.078 | inactive: -0.03 | inactive: -0.042 | inactive: -0.159 | inactive: 0.033 | inactive: -0.011 | inactive: -0.17 |
| PRPS2 isoform 2 (UniProt P11908) | inactive: -0.063 | inactive: -0.021 | inactive: -0.014 | inactive: -0.024 | inactive: -0.019 | inactive: 0.044 | inactive: -0.038 | inactive: 0.038 | inactive: -0.01 | inactive: 0.021 |
| PPM1H (UniProt Q9ULR3) | inactive: -0.007 | inactive: 0 | inactive: -0.027 | inactive: -0.045 | inactive: -0.022 | inactive: 0.039 | inactive: 0.029 | inactive: 0.075 | inactive: 0.019 | inactive: 0.049 |
| PRKCA (UniProt P17252) | inactive: -0.005 | inactive: -0.066 | inactive: 0.008 | inactive: 0.01 | inactive: -0.019 | inactive: 0.057 | inactive: -0.002 | inactive: 0.017 | inactive: -0.027 | inactive: 0.055 |
| PPT2 isoform 3 (UniProt Q9UMR5) | inactive: 0.052 | inactive: 0.008 | inactive: -0.019 | inactive: -0.082 | inactive: -0.114 | inactive: -0.029 | inactive: -0.004 | inactive: 0.093 | inactive: 0.035 | inactive: 0.024 |
| PRPF6 (UniProt O94906) | inactive: -1.17 | inactive: -0.26 | – | inactive: -0.008 | – | – | – | – | – | inactive: 0.127 |
| PRR3 (UniProt P79522) | inactive: -0.069 | inactive: 0.352 | – | – | – | – | – | – | – | inactive: -0.103 |
| PPP1R15A (UniProt O75807) | inactive: -0.604 | inactive: 0.153 | – | – | – | inactive: 0.305 | – | – | inactive: -0.099 | – |
| PRKDC (UniProt P78527) | inactive: 0.009 | inactive: -0.049 | inactive: 0.029 | inactive: -0.073 | inactive: -0.056 | inactive: 0.026 | – | inactive: -0.064 | inactive: -0.005 | inactive: -0.015 |
| PRPF3 (UniProt O43395) | inactive: 0.18 | inactive: -0.038 | inactive: -0.048 | inactive: -0.029 | inactive: 0.031 | inactive: -0.07 | inactive: 0.06 | inactive: 0.072 | inactive: -0.02 | inactive: -0.022 |
| PROSER2 (UniProt Q86WR7) | inactive: -0.067 | inactive: 0.076 | inactive: -0.092 | inactive: 0.029 | inactive: 0.005 | inactive: 0.05 | inactive: 0.007 | inactive: 0.105 | inactive: 0.019 | inactive: 0.177 |
| PRRC2B (UniProt Q5JSZ5) | inactive: -0.087 | inactive: 0.015 | inactive: -0.089 | inactive: 0.056 | inactive: -0.059 | inactive: -0.048 | inactive: -0.008 | inactive: 0.117 | inactive: 0.023 | inactive: -0.006 |
